Data published in article PMC6027488.
Results are given in words; binding and its absence hold for the method and conditions named. Some results given as binding are weak or reduced against the parent protein; the word gives no strength.

The chains behind the UniProt entries cited, without tags or fusion partners. Residues count along the entry.
UniProt P01005, residues 25-210: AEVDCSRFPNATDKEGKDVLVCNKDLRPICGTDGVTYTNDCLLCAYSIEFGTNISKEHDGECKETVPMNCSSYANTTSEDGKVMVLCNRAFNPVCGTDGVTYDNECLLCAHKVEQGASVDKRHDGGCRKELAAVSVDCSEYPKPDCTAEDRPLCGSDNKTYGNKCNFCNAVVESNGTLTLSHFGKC

Target: ovomucoid from chicken egg (chicken) (UniProt P01005)
Experiment: peptide or protein array; animal gastrointestinal mucin microarray (mucins printed on Nexterion slide H); TFF1 dimer at 1, 5, 10 and 50 µg/mL in PBS, 1 h at 37 °C; detected with monoclonal TFF1 antibody 14H3 and Cy5-labelled goat anti-mouse antibody; one experiment; both purified

binding: binds
B1: Recombinant human TFF1 dimer (protein, UniProt P04155 25-84)
chain: EAQTETCTVAPRERQNCGFPGVTPSQCANKGCCFDDTVRGVPWCFYPNTIDVPPEEECEF
